Results are given in words; binding and its absence hold for the method and conditions named. Binding seen in cells or lysates may run through a third protein. Here binding means that the protein was enriched with, or labelled near, the bait; the list need not be complete.
Target: paired box 8 (PAX8) (human (endogenous in 786-M1A)) (UniProt Q06710)
Assay: affinity purification with mass spectrometry; RIME with PAX8 antibodies in 786-M1A cells; four replicates

Chains of the proteins cited; added tags and fusions are not shown. Lines headed by an entry give the natural chain unless they say otherwise; changes in a name come on top.
UniProt Q06710: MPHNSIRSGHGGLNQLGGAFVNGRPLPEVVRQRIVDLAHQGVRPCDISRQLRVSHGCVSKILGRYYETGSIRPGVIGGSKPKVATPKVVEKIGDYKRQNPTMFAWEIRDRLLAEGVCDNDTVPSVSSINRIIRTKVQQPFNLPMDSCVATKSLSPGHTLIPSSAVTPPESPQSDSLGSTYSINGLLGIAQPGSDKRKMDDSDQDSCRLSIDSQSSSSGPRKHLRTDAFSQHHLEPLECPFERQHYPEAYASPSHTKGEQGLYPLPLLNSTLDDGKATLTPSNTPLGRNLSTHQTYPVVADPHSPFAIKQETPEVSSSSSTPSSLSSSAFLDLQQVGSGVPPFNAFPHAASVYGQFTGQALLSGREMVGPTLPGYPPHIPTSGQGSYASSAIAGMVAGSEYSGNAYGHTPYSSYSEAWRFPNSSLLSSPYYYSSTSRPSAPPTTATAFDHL
UniProt P27540: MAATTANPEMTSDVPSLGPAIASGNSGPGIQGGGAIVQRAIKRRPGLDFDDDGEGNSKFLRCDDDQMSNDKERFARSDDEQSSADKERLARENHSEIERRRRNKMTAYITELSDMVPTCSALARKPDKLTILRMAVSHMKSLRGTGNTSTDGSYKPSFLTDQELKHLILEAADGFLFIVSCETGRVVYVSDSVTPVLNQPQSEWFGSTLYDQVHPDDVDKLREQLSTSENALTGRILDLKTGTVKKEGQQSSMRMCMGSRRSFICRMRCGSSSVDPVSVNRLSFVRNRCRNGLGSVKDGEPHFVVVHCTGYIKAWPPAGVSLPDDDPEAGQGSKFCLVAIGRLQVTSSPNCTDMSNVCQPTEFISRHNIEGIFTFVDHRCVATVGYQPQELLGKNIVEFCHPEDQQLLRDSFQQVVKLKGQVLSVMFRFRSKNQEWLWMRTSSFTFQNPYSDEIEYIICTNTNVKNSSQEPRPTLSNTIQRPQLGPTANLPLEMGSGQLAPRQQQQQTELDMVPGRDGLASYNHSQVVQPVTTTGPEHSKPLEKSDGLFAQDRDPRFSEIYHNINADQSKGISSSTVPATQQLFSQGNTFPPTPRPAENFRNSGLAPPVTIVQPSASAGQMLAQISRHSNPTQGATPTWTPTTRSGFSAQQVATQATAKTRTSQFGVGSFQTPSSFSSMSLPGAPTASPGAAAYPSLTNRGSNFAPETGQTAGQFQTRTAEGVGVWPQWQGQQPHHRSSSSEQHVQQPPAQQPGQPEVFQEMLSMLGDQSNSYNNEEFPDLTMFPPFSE

- binding: binds
Substance: ARNT (from UniProt P27540 1-789)

— publication PMC9242860
